Measurements published in paper doi:10.1101/2025.05.21.655360.
Results are given in words; binding and its absence hold for the method and conditions named. In cells and extracts the contact can be indirect. Some binding calls cover weakened binding; strength is not graded here. Tags and fused reporters may be left off the sequences shown.

Chains of the proteins cited; added tags and fusions are not shown. Lines headed by an entry give the natural chain unless they say otherwise; changes in a name come on top.
UniProt P05556: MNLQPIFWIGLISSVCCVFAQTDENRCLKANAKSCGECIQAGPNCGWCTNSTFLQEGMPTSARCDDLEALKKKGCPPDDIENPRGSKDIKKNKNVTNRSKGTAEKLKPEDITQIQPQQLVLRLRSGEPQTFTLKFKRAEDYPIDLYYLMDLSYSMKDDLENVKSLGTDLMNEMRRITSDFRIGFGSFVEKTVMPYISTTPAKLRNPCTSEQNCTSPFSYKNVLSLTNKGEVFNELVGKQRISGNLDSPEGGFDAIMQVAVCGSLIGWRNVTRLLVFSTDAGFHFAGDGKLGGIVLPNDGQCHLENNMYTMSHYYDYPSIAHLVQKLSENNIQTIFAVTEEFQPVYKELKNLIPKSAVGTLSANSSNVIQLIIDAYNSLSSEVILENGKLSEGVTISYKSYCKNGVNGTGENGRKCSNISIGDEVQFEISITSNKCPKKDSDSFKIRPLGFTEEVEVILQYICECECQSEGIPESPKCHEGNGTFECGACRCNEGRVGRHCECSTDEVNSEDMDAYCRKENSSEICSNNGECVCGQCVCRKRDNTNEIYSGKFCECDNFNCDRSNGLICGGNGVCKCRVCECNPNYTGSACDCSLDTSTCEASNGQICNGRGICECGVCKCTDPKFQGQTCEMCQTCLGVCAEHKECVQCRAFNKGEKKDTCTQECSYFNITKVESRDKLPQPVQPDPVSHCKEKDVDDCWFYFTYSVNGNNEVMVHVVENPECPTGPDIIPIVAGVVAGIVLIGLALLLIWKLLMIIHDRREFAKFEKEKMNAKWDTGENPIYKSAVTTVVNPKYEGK

Target: T1, V5-tagged full-length Semaphorin 7a (666 aa), overexpressed in MCF7 cells (UniProt O75326)
T1 sequence: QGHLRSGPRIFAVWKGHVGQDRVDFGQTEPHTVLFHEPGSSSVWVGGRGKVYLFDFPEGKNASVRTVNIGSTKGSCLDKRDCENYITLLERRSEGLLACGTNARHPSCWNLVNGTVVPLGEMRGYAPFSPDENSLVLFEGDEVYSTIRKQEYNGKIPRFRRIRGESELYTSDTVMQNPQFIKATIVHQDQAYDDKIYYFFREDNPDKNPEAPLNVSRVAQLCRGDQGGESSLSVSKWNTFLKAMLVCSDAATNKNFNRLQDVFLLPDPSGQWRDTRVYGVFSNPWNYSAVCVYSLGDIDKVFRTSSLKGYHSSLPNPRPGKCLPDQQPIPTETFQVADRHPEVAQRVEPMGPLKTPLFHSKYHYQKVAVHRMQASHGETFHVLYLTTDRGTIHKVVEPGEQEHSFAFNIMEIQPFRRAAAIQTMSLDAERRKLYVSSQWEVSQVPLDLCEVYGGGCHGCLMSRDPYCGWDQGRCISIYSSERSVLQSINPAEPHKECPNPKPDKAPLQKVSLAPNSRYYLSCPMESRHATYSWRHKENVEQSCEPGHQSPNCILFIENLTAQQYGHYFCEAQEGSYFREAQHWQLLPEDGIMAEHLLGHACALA
Test: co-IP

binding: binds
Substance: Integrin β1 (from UniProt P05556 21-798) (receptor)
